Assay results: PubChem BioAssay AID540276 (National Center for Advancing Translational Sciences (NCATS), 2011)
“And” between values parts separate entries of the source, which are not always exact repeats. Equal entries are not always repeated. Hit rate of the full screen: of about 300,000 compounds, about 5,400 (1.8%) were called active. The shares of active, inactive and inconclusive entries below differ from those in the screen. The call rests on the fitted dose curve; tested in HEK293 cells. Potencies beside an inconclusive call are fits to weak or partial responses and may not hold up.

Assay: qHTS for inhibitors of binding or entry into cells for Marburg Virus
Conditions: Marburg virus pseudotyped entry inhibition, cell reporter; activity change, negative = inhibition: at 37.8 µM (top of the series) unless noted
On the % scale 0 is the no-effect control and ±100 the full control effect; potency means the concentration at half of the fitted maximal effect.

| SMILES | Potency | activity change, negative = inhibition |
| --- | --- | --- |
| C/C(=N\NC(=O)c1ccc(Cn2cc(Br)cn2)o1)c1cccc(NC(=O)C(C)C)c1 | inconclusive: 8.91 µM [inhibitor, partial curve] | – |
| O=C(/C=C/c1ccccc1)c1ccc2c3c(cccc13)CC2 | inconclusive: 35.5 µM [inhibitor, single point] | – |
| c1c(C2CCCCC2)n[nH]c1CN1CCCCC1 | inconclusive: 1.46 µM [inhibitor, partial curve, poor fit] | – |
| O=S1(=O)C=C(SCc2ccccc2)Nc2ccccc21 | inconclusive: 0.708 µM [inhibitor, full curve, poor fit] | – |
| O=C(COC(=O)c1ccccc1Nc1ccc(SC(F)F)cc1)NCc1ccco1 | – | inactive: -15.3% |
| COc1ccccc1-n1c2nc3ccccc3nc2c2c(=O)n(-c3cc(C)cc(C)c3)cnc21 | inconclusive: 6.31 µM [inhibitor, full curve, poor fit] | – |
| COc1ccccc1OCCn1cc(C(=O)O)c2ccccc21 | inconclusive: 2.51 µM [inhibitor, single point] | – |
| COc1cccc(/C=N/NC(=O)c2cccc(N3CCCC3=O)c2)c1 | inconclusive: 35.5 µM [activator, single point] | – |
| CC(=O)N1c2ccccc2NC2=C(C(=O)CCC2)C1c1ccco1 (stereo not given) | – | inactive: -20.4% [at 46.1 µM] |
| O=C(Nc1sc2c(c1-c1nc3ccccc3[nH]1)CCCC2)C1CCCC1 | – | inactive: -11.5% |
| Cc1ccc(C(C)C)c(OCC(=O)Nc2c(C(=O)c3ccc(F)cc3)oc3ccccc23)c1 | inconclusive: 35.5 µM [inhibitor, single point] | – |
| N#Cc1nc(-c2ccc(F)cc2)oc1NCc1cccc2c1OCO2 | – | inactive: 10.5% |
| CCOC(=O)C1(Cc2ccc(OC)cc2)CCN(C(=O)CN2CCCCC2=O)CC1 | – | inactive: 0.149% [at 46.1 µM] |
| CCN(CC)c1ccc(N=Nc2ncn[nH]2)cc1 | inconclusive: 4.47 µM [inhibitor, partial curve] | – |
| O=C(COC(=O)C12CC3CC(CC(Br)(C3)C1)C2)Nc1ccc2[nH]c(=O)[nH]c2c1 | inconclusive: 35.5 µM [activator, single point] | – |
| CCCc1cc(C(=O)N/N=C/c2cccn2C)cs1 | inconclusive: 2 µM [activator, partial curve, poor fit] | – |
| N[C@@H](CCCC(=O)O)C(=O)O | inconclusive: 20 nM [activator, full curve, poor fit] and inconclusive: 29.1 µM [activator, single point] | – |
| CC1CN(C(=O)c2ccc(COc3ccccc3Br)o2)CC(C)O1 (stereo not given) | inconclusive: 25.1 µM [inhibitor, partial curve, poor fit] | – |
| COc1ccccc1OCCNC1CCCC1 | – | inactive: -17.5% |
| CCOc1ccccc1NC(=O)C1CCN(S(=O)(=O)Cc2ccccc2)CC1 | inconclusive: 35.5 µM [inhibitor, single point] | – |
| CNc1oc(-c2ccc(Cl)cc2)nc1C#N | inconclusive: 3.98 µM [activator, single point] | – |
| NC(=O)NN=C1CC2CC1C1C=CCC21 (stereo not given) | inconclusive: 35.5 µM [activator, single point] | – |

Reprinted from the listing for reference:

| SMILES | Potency | activity change, negative = inhibition |
| --- | --- | --- |
| CCN(CC)c1ccc(N=Nc2ncn[nH]2)cc1 | inconclusive: 4.47 µM [inhibitor, partial curve] | – |
| O=C(COC(=O)C12CC3CC(CC(Br)(C3)C1)C2)Nc1ccc2[nH]c(=O)[nH]c2c1 | inconclusive: 35.5 µM [activator, single point] | – |
| CCCc1cc(C(=O)N/N=C/c2cccn2C)cs1 | inconclusive: 2 µM [activator, partial curve, poor fit] | – |

Next part.

| SMILES | Potency | activity change, negative = inhibition |
| --- | --- | --- |
| C/C(=N\N)C1C(=O)N=c2ccc(Br)cc2=C1c1ccccc1 (stereo not given) | inconclusive: 35.5 µM [activator, partial curve, poor fit] | – |
| Cc1ccc(NC(=O)c2ccc(OC(F)(F)F)cc2)cc1S(=O)(=O)N(C)C | inconclusive: 8.91 µM [inhibitor, partial curve, poor fit] | – |
| COc1cc(CNCC(O)c2ccccc2)ccc1OCc1ccc(Cl)nc1 (stereo not given) | inconclusive: 20 µM [inhibitor, single point] | – |
| COC(=O)c1sc(-c2ccccc2)cc1NC(=O)C1CC1 | inconclusive: 12.6 µM [inhibitor, partial curve, poor fit] | – |
| CC(Oc1ccc(Cl)cc1Cl)C(=O)Nc1ccc(S(=O)(=O)Nc2cnc3ccccc3n2)cc1 (stereo not given) | inconclusive: 0.891 µM [activator, partial curve, poor fit] | – |
| N=C1SCC(=O)N1c1ncc(Cc2ccc(F)cc2)s1 | inconclusive: 35.5 µM [inhibitor, single point] | – |
| COC(=O)c1sccc1NC(=S)Nc1ccc(F)cc1 | – | inactive: -9.24% |
| COc1ccc(O)c(CN2CCCC(C(=O)c3ccccc3SC)C2)c1 (stereo not given) | inconclusive: 6.31 µM [activator, single point] | – |
| COc1ccc(C2C(C#N)=C(N)N(c3ccccc3C#N)C3=C2C(=O)CCC3)cc1CN1CCCC1 (stereo not given) | active: 5.8 µM | – |
| COc1ccccc1NC(=O)CC1CCCC1 | inconclusive: 35.5 µM [activator, partial curve, poor fit] | – |
| Cc1cccc(NC(=O)/C=C/c2ccc([N+](=O)[O-])s2)c1 | inconclusive: 0.316 µM [inhibitor, full curve, poor fit] | – |
| O=C(COC(=O)c1ccco1)Nc1nc2ccccc2s1 | inconclusive: 0.82 µM [inhibitor, full curve, poor fit] | – |
| O=C(CN1C(=O)NC2(CCCCCCC2)C1=O)N1CCOCC1 | inconclusive: 13 µM [activator, single point] | – |
| COc1ccc(CN(C)C(C)C(=O)NC2CCCc3ccccc32)cc1 (stereo not given) | inconclusive: 6.31 µM [inhibitor, partial curve, poor fit] | – |
| COC(=O)c1ccccc1NC(=S)N(Cc1ccc2c(c1)OCO2)Cc1cc2ccc(C)cc2[nH]c1=O | inconclusive: 22.4 µM [inhibitor, single point] | – |
| CCOC(=O)C1CCCN(C(=O)c2cn(C)c(=O)c3cc(OC)c(OC)cc23)C1 (stereo not given) | inconclusive: 8.91 µM [activator, partial curve, poor fit] | – |
| C=C1c2cc(C)c(C)cc2NC(=O)N1c1ccccc1 | inconclusive: 1.26 µM [inhibitor, single point] | – |
| Cc1ccc(NC(=O)C2=C(O)CCn3c2nc2ccccc23)cc1 | – | inactive: 3.6% |
| O=C(Nc1ccc(O)c(-c2nc3ccccc3s2)c1)c1cc(=O)c2ccccc2o1 | inconclusive: 5.01 µM [activator, full curve] | – |
| CCCCS(=O)(=O)N1CCCC(C(=O)Nc2ccc3c(c2)CCC3)C1 (stereo not given) | inconclusive: 31.6 µM [activator, single point] | – |
| Cc1nc(C(F)(F)F)c(C(=O)N=CN(C)C)s1 | inconclusive: 0.562 µM [inhibitor, full curve, poor fit] | – |
| O=C(COC(=O)Cc1ccc(-c2ccccc2)cc1)NCc1ccc(F)cc1 | – | inactive: 8.44% |

| SMILES | Potency | activity change, negative = inhibition |
| --- | --- | --- |
| CCN1C(=O)N/C(=C/c2cc(C)n(Cc3ccccc3)c2C)C1=O | inconclusive: 20.6 µM [inhibitor, single point] | – |
| COc1ccc(CCN=C2SCC(=O)N2Cc2ccccc2)cc1OC | inconclusive: 7.08 µM [inhibitor, partial curve, poor fit] | – |
| O=S1(=O)N=C(Nc2ccc(N3CCOCC3)c(Cl)c2)c2ccccc21 | inconclusive: 3.16 µM [activator, full curve, poor fit] | – |
| O=C(CCc1nnc(Cc2c[nH]c3ccccc23)o1)NCC1CC12CCCCC2 (stereo not given) | inconclusive: 12.6 µM [activator, partial curve, poor fit] | – |
| Cc1ccc(S(=O)(=O)C2(C(=O)N3CCN(c4ccccc4F)CC3)CC2)cc1 | – | inactive: 1.7% [at 46.1 µM] |
| O=C(CNC(=O)c1ccc(Cl)cc1)c1ccc(Cl)cc1 | inconclusive: 35.5 µM [activator, single point] | – |
| CCN(CC)C1=N/C(=C\c2ccc(OC)cc2)C(=O)N1c1ccccc1 | inconclusive: 1.12 µM [inhibitor, full curve, poor fit] | – |
| Cc1cc(SCCOc2ccccc2)nc(N)n1 | inconclusive: 29.1 µM [activator, single point] | – |
| CCCN(CCC)C(=O)c1ccc2c(c1)N(CC)C(=O)c1ccccc1S2(=O)=O | inconclusive: 35.5 µM [inhibitor, single point] | – |
| Fc1ccc(CNc2ccc(N3CCN(Cc4ccccc4)CC3)cc2)cc1 | inconclusive: 10 µM [inhibitor, partial curve, poor fit] | – |
| CN(C)c1ccc(-c2nc3ccccn3c2Nc2ccc3c(c2)OCCO3)cc1 | inconclusive: 6.31 µM [activator, full curve, poor fit] | – |
| COc1ccc(CC(=O)Nc2cccc3ccccc23)cc1OC | – | inactive: -26.2% |
| Nc1c(C(=O)NCc2ccco2)nnn1-c1ccccc1 | – | inactive: 20% |
| O=C(Nc1ccc(-c2ccc([N+](=O)[O-])cc2)cc1)c1ccccc1F | – | inactive: 1.61% [at 46.1 µM] |
| COc1ccc(NC(=S)N(CCN2CCOCC2)Cc2ccccc2F)cc1 | inconclusive: 35.5 µM [inhibitor, single point] | – |
| O=C(CCN1CCCCC1)Nn1c(=S)[nH]c2ccccc2c1=O | inconclusive: 0.13 µM [activator, full curve, poor fit] | – |
| c1ccc(-c2noc(-c3ccc4ccccc4c3)n2)cc1 | inconclusive: 6.51 µM [inhibitor, partial curve, poor fit] | – |
| COc1cccc([C@@H](NC(=O)C(F)(F)F)[C@@H]2CCCC=C2c2ccccc2)c1 | inconclusive: 2.99 µM [inhibitor, single point] | – |
| Cc1c(S(=O)(=O)Nc2cccc3ccccc23)c(=O)n(C)c(=O)n1C | – | inactive: 2.26% |
| COc1ccc(/C=N/NC(=O)CCSc2nc3ccccc3s2)cc1 | inconclusive: 2.91 µM [inhibitor, full curve, poor fit] | – |
| COCC1CCCN(C(=O)c2cc(COc3cccc4cccnc34)on2)C1 (stereo not given) | inconclusive: 0.631 µM [activator, partial curve, poor fit] | – |
